The list shows only some results of the screen, not a fair sample: its compounds were picked by chemical class. Other doses and runs of a compound may be missing. T/C is the treated group as % of the vehicle group. Some doses have a count of surviving animals in place of a T/C: the source files T/C as zero there, which appears to mark a toxic dose or a test without result, not a measured value. Some doses without a T/C left all or most animals alive at the check, yet need not have been tolerated: the source hardly ever lists a survival T/C far under the control, and the zero likely stands for such cases as well. Survivors were counted at the toxicity check, usually on the fifth day, unless a day is given; later deaths do not show. Schedule codes are those of the source, taken here to give the interval after Q, in days (D) or hours (H), and the number of doses after X. Some metal complexes and salts are drawn in pieces, as in the source, so charges may not balance. Where survival is the endpoint, this PubChem deposit counts one and a half times the control or more as active, and values a quarter to a half above the control carry no call in these data; other NCI protocols may use other cut-offs. Some entries show no survivor count and are marked so; the dose need not have been tolerated. Some T/C values are followed by the survivors on the day toxicity was checked, most often the fifth; without a count or a note in brackets, all were alive then. Some doses were run more than once; the results are listed from low to high.
System: CD2F1 mice, L1210 leukemia ip, survival T/C
Experiment: NCI In Vivo Anticancer Drug Screen. Data for tumor model L1210 Leukemia (intraperitoneal) in CD2F1 (CDF1) mice
Conditions: T/C endpoint: mean survival time, higher T/C = longer survival
Summary of the method: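 Ratio T/C, where T is the treated-group value and C the vehicle-dosed control value, from mice implanted with a transplantable tumor.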

[1] = dose: 100.0 mg/kg/injection, schedule: Q01DX001 (ip), vehicle: saline with Tween-80
[2] = dose: 200.0 mg/kg/injection, schedule: Q01DX001 (ip), vehicle: saline with Tween-80
[3] = dose: 400.0 mg/kg/injection, schedule: Q01DX001 (ip), vehicle: saline with Tween-80
[4] = dose: 100.0 mg/kg/injection, schedule: Q04DX002 (ip), vehicle: saline with Tween-80
[5] = dose: 200.0 mg/kg/injection, schedule: Q04DX002 (ip), vehicle: saline with Tween-80
[6] = dose: 400.0 mg/kg/injection, schedule: Q04DX002 (ip), vehicle: saline with Tween-80
[7] = dose: 100.0 mg/kg/injection, schedule: Q01DX009 (ip), vehicle: saline with Tween-80
[8] = dose: 200.0 mg/kg/injection, schedule: Q01DX009 (ip), vehicle: saline with Tween-80
[9] = dose: 400.0 mg/kg/injection, schedule: Q01DX009 (ip), vehicle: saline with Tween-80
[10] = dose: 500.0 mg/kg/injection, schedule: Q01DX001 (ip), vehicle: distilled water + Tween-80

With `CCN(CC)CCOC(=O)C(O)(c1ccccc1)c1cc(C)c(C)cc1C` (stereo not given) the T/C (dose: 75.0 mg/kg/injection, schedule: Q01DX001 (ip), vehicle: saline) was 98 % of control and the T/C (dose: 150.0 mg/kg/injection, schedule: Q01DX001 (ip), vehicle: saline) was 98 % of control.

`C=CS(=O)(=O)C=C` was tested, and the T/C (dose: 0.25 mg/kg/injection, schedule: Q01DX009 (ip), vehicle: saline) was 100 % of control, the T/C (dose: 0.5 mg/kg/injection, schedule: Q01DX009 (ip), vehicle: saline) was 103 % of control and the T/C (dose: 1.0 mg/kg/injection, schedule: Q01DX009 (ip), vehicle: saline) was 103 % of control. For the same compound, the survivor count (dose: 5.0 mg/kg/injection, schedule: Q01DX009 (ip), vehicle: saline with Tween-80) was 1 of 6, the survivor count (dose: 10.0 mg/kg/injection, schedule: Q01DX009 (ip), vehicle: saline with Tween-80) was 0 of 6 and the survivor count (dose: 20.0 mg/kg/injection, schedule: Q01DX009 (ip), vehicle: saline with Tween-80) was 0 of 6.

`NCc1ccco1.O=[P+](O)Oc1ccccc1` was tested, and the T/C (dose: 100.0 mg/kg/injection, schedule: Q04DX003 (ip), vehicle: other) was 93 % of control, the T/C (dose: 200.0 mg/kg/injection, schedule: Q04DX003 (ip), vehicle: other) was 100 % of control and the T/C (dose: 400.0 mg/kg/injection, schedule: Q04DX003 (ip), vehicle: other) was 96 % of control.

`CC(=O)N(CCCc1c(C)nc(N)[nH]c1=O)Cc1ccccn1.O=[N+]([O-])c1cc([N+](=O)[O-])c(O)c([N+](=O)[O-])c1` was tested, and the T/C [1] was 95 % of control, the T/C [2] was 90 % of control and the T/C [3] was 87 % of control.

For `Cc1ccc2c(c1)C[P+](c1ccccc1)(c1ccccc1)CCC2C.F[P-](F)(F)(F)(F)F` (stereo not given), the T/C [4] was 98 % of control, the survivor count [5] was 2 of 3 and the survivor count [6] was 1 of 3.

`COc1nncc2ccccc12.O=[N+]([O-])c1cc([N+](=O)[O-])c(O)c([N+](=O)[O-])c1` was tested, and the T/C (dose: 100.0 mg/kg/injection, schedule: Q04DX003 (ip), vehicle: saline with Tween-80) was 97 % of control [survivor count not shown], the T/C (dose: 200.0 mg/kg/injection, schedule: Q04DX003 (ip), vehicle: saline with Tween-80) was 97 % of control [survivor count not shown] and the T/C (dose: 400.0 mg/kg/injection, schedule: Q04DX003 (ip), vehicle: saline with Tween-80) was 90 % of control [survivor count not shown].

`Cc1cc([N+](=O)[O-])cc([N+](=O)[O-])c1O` was tested, and the survivor count (dose: 25.0 mg/kg/injection, schedule: Q01DX009 (ip), vehicle: saline) was 6 of 6, the T/C (dose: 50.0 mg/kg/injection, schedule: Q01DX009 (ip), vehicle: saline) was 92 % of control [4 of 6 alive] and the survivor count (dose: 100.0 mg/kg/injection, schedule: Q01DX009 (ip), vehicle: saline) was 0 of 6.

In the case of `O=C(CCC(=O)OCCNc1ccc([N+](=O)[O-])cc1[N+](=O)[O-])OCCNc1ccc([N+](=O)[O-])cc1[N+](=O)[O-]`, the T/C [4] was 102 % of control, the T/C [5] was 91 % of control and the T/C [6] was 95 % of control.

`F[P-](F)(F)(F)(F)F.NC(=O)C1CC[N-]CC1.[NH2-].[NH2-].[NH2-].[NH2-].[NH2-].[Ru+8]` was tested, and the T/C (dose: 3.13 mg/kg/injection, schedule: Q04DX003 (ip), vehicle: water) was 101 % of control, the T/C (dose: 6.25 mg/kg/injection, schedule: Q04DX003 (ip), vehicle: water) was 104 % of control and the T/C (dose: 12.5 mg/kg/injection, schedule: Q04DX003 (ip), vehicle: water) was 91 % of control. The T/C (dose: 25.0 mg/kg/injection, schedule: Q04DX003 (ip), vehicle: water) was 93 % of control, the T/C (dose: 50.0 mg/kg/injection, schedule: Q04DX003 (ip), vehicle: water) was 96 % of control and the T/C (dose: 100.0 mg/kg/injection, schedule: Q04DX003 (ip), vehicle: water) was 96 % of control. The survivor count (dose: 200.0 mg/kg/injection, schedule: Q04DX003 (ip), vehicle: water) was 0 of 6.

`CCOC(=O)c1ccc(N(CN)S(=O)(=O)c2ccc(C)cc2)cc1.O=[N+]([O-])c1cc([N+](=O)[O-])c(O)c([N+](=O)[O-])c1` was tested, and the T/C [1] was 101 % of control, the T/C [2] was 92 % of control and the T/C [3] was 95 % of control.

With `CCCCNCCN=C(N)C(N)=NCCNCCCC.O=[N+]([O-])c1cc([N+](=O)[O-])c(O)c([N+](=O)[O-])c1` the T/C (dose: 75.0 mg/kg/injection, schedule: Q04DX002 (ip), vehicle: saline with Tween-80) was 96 % of control [survivor count not shown].

With `O=[N+]([O-])c1cc(Cl)c(O)c([N+](=O)[O-])c1` the T/C (dose: 25.0 mg/kg/injection, schedule: Q01DX009 (ip), vehicle: saline with Tween-80) was 98 % of control, the T/C (dose: 50.0 mg/kg/injection, schedule: Q01DX009 (ip), vehicle: saline with Tween-80) was 98 % of control and the T/C [7] was 102 [5 of 6 alive] and 106 % of control. For the same compound, the survivor count [8] was 0 of 6 and the survivor count [9] was 0 of 6.

With `C/C(CC/C(C)=N\Nc1ccc([N+](=O)[O-])cc1[N+](=O)[O-])=N/Nc1ccc([N+](=O)[O-])cc1[N+](=O)[O-]` the T/C [1] was 94 % of control, the T/C [2] was 86 % of control and the survivor count [3] was 6 of 6.

With `C[C@@H]1C[C@H](C)OP(=O)(N(CCCl)CCCl)O1` (stereo not given in full) the T/C (dose: 15.6 mg/kg/injection, schedule: Q01DX001 (ip), vehicle: distilled water + Tween-80, evaluated on day 30) was 113 % of control, the T/C (dose: 15.6 mg/kg/injection, schedule: Q01DX001 (ip), vehicle: distilled water + Tween-80, evaluated on day 45) was 94 % of control and the T/C (dose: 31.3 mg/kg/injection, schedule: Q01DX001 (ip), vehicle: distilled water + Tween-80, evaluated on day 30) was 125 % of control. For the same compound, the T/C (dose: 31.3 mg/kg/injection, schedule: Q01DX001 (ip), vehicle: distilled water + Tween-80, evaluated on day 45) was 100 % of control, the T/C (dose: 62.5 mg/kg/injection, schedule: Q01DX001 (ip), vehicle: distilled water + Tween-80, evaluated on day 30) was 116 % of control and the T/C (dose: 62.5 mg/kg/injection, schedule: Q01DX001 (ip), vehicle: distilled water + Tween-80, evaluated on day 45) was 107 % of control. The T/C (dose: 125.0 mg/kg/injection, schedule: Q01DX001 (ip), vehicle: distilled water + Tween-80, evaluated on day 30) was 137 % of control, the T/C (dose: 125.0 mg/kg/injection, schedule: Q01DX001 (ip), vehicle: distilled water + Tween-80, evaluated on day 45) was 125 % of control and the T/C (dose: 250.0 mg/kg/injection, schedule: Q01DX001 (ip), vehicle: distilled water + Tween-80, evaluated on day 30) was 134 % of control [5 of 6 alive]. The T/C (dose: 250.0 mg/kg/injection, schedule: Q01DX001 (ip), vehicle: distilled water + Tween-80, evaluated on day 45) was 131 % of control, the T/C [10] was 120 % of control [5 of 6 alive] and the survivor count [10] was 5 of 6.

With `CCN(CCCl)CCOc1ccc([N+](=O)[O-])cc1` the T/C (dose: 4.0 mg/kg/injection, schedule: Q01DX009 (ip), vehicle: saline with Tween-80) was 100 % of control, the T/C (dose: 6.0 mg/kg/injection, schedule: Q01DX009 (ip), vehicle: saline with Tween-80) was 105 % of control and the T/C (dose: 9.0 mg/kg/injection, schedule: Q01DX009 (ip), vehicle: saline with Tween-80) was 97 % of control. For the same compound, the survivor count [7] was 2 of 6, the survivor count [8] was 0 of 6 and the survivor count [9] was 0 of 6.

In the case of `CC(=O)NP(=O)(O)N(CCCl)CCCl.NC1CCCCC1`, the T/C (dose: 15.63 mg/kg/injection, schedule: Q01DX001 (ip), vehicle: water) was 101 % of control [5 of 6 alive], the T/C (dose: 31.25 mg/kg/injection, schedule: Q01DX001 (ip), vehicle: water) was 104 % of control and the T/C (dose: 62.5 mg/kg/injection, schedule: Q01DX001 (ip), vehicle: water) was 108 % of control. For the same compound, the T/C (dose: 125.0 mg/kg/injection, schedule: Q01DX001 (ip), vehicle: water) was 119 % of control, the T/C (dose: 250.0 mg/kg/injection, schedule: Q01DX001 (ip), vehicle: water) was 114 % of control and the T/C (dose: 500.0 mg/kg/injection, schedule: Q01DX001 (ip), vehicle: water) was 119 % of control. For the same compound, the T/C (dose: 1000.0 mg/kg/injection, schedule: Q01DX001 (ip), vehicle: water) was 135 % of control.

Reference: PubChem BioAssay AID256 (DTP/NCI, 2004)
